The test concerns the target Recombinant MAPKAPK2 (MK-2) (Homo sapiens, UniProt P49137). Briefly: Determination of MK-2 IC50 (HSP-peptide phosphorylation, anion exchange resin capture assay). As to conditions: MAPKAP2 Avg. IC50. In kind it is biochemical.

Protein sequences, listed by entry. Tags and fused reporters are not part of them.
UniProt P49137, whole entry, species assumed: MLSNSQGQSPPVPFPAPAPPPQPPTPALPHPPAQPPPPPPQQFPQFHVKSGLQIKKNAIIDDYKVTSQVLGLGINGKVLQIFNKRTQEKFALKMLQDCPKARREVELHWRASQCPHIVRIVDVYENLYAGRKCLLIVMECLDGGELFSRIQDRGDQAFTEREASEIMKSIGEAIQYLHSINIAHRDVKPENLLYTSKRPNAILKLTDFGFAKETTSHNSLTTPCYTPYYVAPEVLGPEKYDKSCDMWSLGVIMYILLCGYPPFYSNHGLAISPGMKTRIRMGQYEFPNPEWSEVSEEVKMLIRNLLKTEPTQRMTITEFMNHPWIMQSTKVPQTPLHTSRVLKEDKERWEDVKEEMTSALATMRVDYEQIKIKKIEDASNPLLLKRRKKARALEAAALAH

SMILES strings stand for the structures. Structures can show the parent of a compound that is named as a salt.

This is an account of results in US20040209897A1 (Pharmacia Corporation, priority 2002, published 2004).

On to `O=C(NC1CCCC1)c1ccc(-c2cc(-c3cc4c([nH]3)CCNC4=O)ccn2)cc1` [Example 7, 2-(2,3′-bipyridin-4-yl)-1,5,6,7-tetrahydro-4H-pyrrolo[3,2-c]pyridin-4-one trifluoroacetate], for which the concentration for half-maximal inhibition (IC50) (in general, the point on the concentration scale where inhibition reaches its midpoint) worked out at 8 nM.
